# Test results taken from the supplement of paper PMC8728848.
# The list shows a part of the results.
# B1: Fap1 (Streptococcus parasanguis) (protein)
# chain: KATSKGTEEKQDSVRENLDKMISEAEVLNDMAARKLITLDAEQQLELMKSLVATQSQLEATKNLIGDPNATVADLQIAYTTLGNNTQALGNELIKLNPNGQIYAVLNNTEASRAATLRSTTTGTKTTFTISDFSNGGTQYYWAGGNANNLKNPISSISAVYDSATGKISWTVEYDPTTILKSPALKTLKTYTGIYIDTSSDSKLSTPTNVLIDGAATNPVTNFYGNGSKGIEYVSKGTTKGVTKHTITFDTAFSGRANDLADLEIKMLAATTLSDPHFYEDGSKGNYGRYNGQTAPYVIANDSGTAIGGYQVSGVNADSIPSDTT
# How the values were obtained:
# Assay in all cases: glycan array binding signal (z-score within array); higher = stronger binding
# Details in all cases: glycan notation: IUPAC condensed, linker removed
# [1] = molecular target: Gal6S(b1-4)Glc6S
# Method in brief: (§1)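 The binding signal is a Z-score computed within each array and averaged over linkers. Arrays of the same protein sequence at different concentrations or buffers were also averaged together. Data originate from 3228 arrays in the Consortium for Functional Glycomics database, kept only where the protein sequence was available.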
# [2] = molecular target: Gal6S(b1-4)GlcNAc
# Method in brief: as §1
# [3] = molecular target: GalNAc(a1-3)Gal
# Method in brief: as §1
# [4] = molecular target: GalNAc(a1-3)GalNAc
# Method in brief: as §1
# [5] = molecular target: GalNAc(b1-3)Gal(a1-4)Gal(b1-4)GlcNAc
# Method in brief: as §1
# [6] = molecular target: GalNAc(b1-3)GalNAc
# Method in brief: as §1
# [7] = molecular target: GalNAc(b1-4)GlcNAc
# Method in brief: as §1
# [8] = molecular target: Glc(a1-4)Glc
# Method in brief: as §1
# [9] = molecular target: Glc(a1-6)Glc(a1-6)Glc
# Method in brief: as §1
# [10] = molecular target: Glc(b1-4)Glc
# Method in brief: as §1
# [11] = molecular target: Glc(b1-6)Glc
# Method in brief: as §1
# [12] = molecular target: GlcA(b1-3)Gal
# Method in brief: as §1
# [13] = molecular target: GlcA(b1-6)Gal
# Method in brief: as §1
# [14] = molecular target: GlcNAc(a1-3)Gal(b1-4)GlcNAc
# Method in brief: as §1
# [15] = molecular target: GlcNAc(a1-6)Gal(b1-4)GlcNAc
# Method in brief: as §1
# [16] = molecular target: GlcNAc(b1-2)Gal(b1-3)GalNAc
# Method in brief: as §1
# [17] = molecular target: GlcNAc(b1-2)Man(a1-3)[GlcNAc(b1-2)Man(a1-6)]Man(b1-4)GlcNAc(b1-4)GlcNAc
# Method in brief: as §1
# [18] = molecular target: GlcNAc(b1-3)Gal
# Method in brief: as §1
# [19] = molecular target: GlcNAc(b1-3)Gal(b1-3)GalNAc
# Method in brief: as §1
# [20] = molecular target: GlcNAc(b1-3)Gal(b1-4)Glc
# Method in brief: as §1
# [21] = molecular target: GlcNAc(b1-3)Gal(b1-4)GlcNAc
# Method in brief: as §1
# [22] = molecular target: GlcNAc(b1-3)Gal(b1-4)GlcNAc(b1-3)Gal(b1-4)GlcNAc
# Method in brief: as §1
# [23] = molecular target: GlcNAc(b1-3)GalNAc
# Method in brief: as §1
# [24] = molecular target: GlcNAc(b1-3)[GlcNAc(b1-4)][GlcNAc(b1-6)]GlcNAc
# Method in brief: as §1
# [25] = molecular target: GlcNAc(b1-3)[GlcNAc(b1-6)]Gal(b1-4)GlcNAc
# Method in brief: as §1
# [26] = molecular target: GlcNAc(b1-3)[GlcNAc(b1-6)]GalNAc
# Method in brief: as §1
# [27] = molecular target: GlcNAc(b1-4)Gal(b1-4)GlcNAc
# Method in brief: as §1
# [28] = molecular target: GlcNAc(b1-4)GlcNAc(b1-4)GlcNAc
# Method in brief: as §1
# [29] = molecular target: GlcNAc(b1-4)GlcNAc(b1-4)GlcNAc(b1-4)GlcNAc(b1-4)GlcNAc
# Method in brief: as §1
# [30] = molecular target: GlcNAc(b1-4)GlcNAc(b1-4)GlcNAc(b1-4)GlcNAc(b1-4)GlcNAc(b1-4)GlcNAc
# Method in brief: as §1
# [31] = molecular target: GlcNAc(b1-4)[GlcNAc(b1-6)]GalNAc
# Method in brief: as §1
# [32] = molecular target: GlcNAc(b1-6)Gal(b1-4)GlcNAc
# Method in brief: as §1
# [33] = molecular target: GlcNAc(b1-6)GalNAc
# Method in brief: as §1
# [34] = molecular target: Kdn(a2-3)Gal(b1-3)GlcNAc
# Method in brief: as §1
# [35] = molecular target: Kdn(a2-3)Gal(b1-4)GlcNAc
# Method in brief: as §1
# [36] = molecular target: Man(a1-2)Man(a1-2)Man(a1-3)Man
# Method in brief: as §1
# [37] = molecular target: Man(a1-2)Man(a1-2)Man(a1-6)[Man(a1-3)]Man
# Method in brief: as §1
binder,measurement,setting,value
B1,glycan array binding signal (z-score),[1],-0.521
same,glycan array binding signal (z-score),[2],1.13
same,glycan array binding signal (z-score),[3],0.448
same,glycan array binding signal (z-score),[4],0.44
same,glycan array binding signal (z-score),[5],0.048
same,glycan array binding signal (z-score),[6],-0.059
same,glycan array binding signal (z-score),[7],0.043
same,glycan array binding signal (z-score),[8],0.228
same,glycan array binding signal (z-score),[9],-0.769
same,glycan array binding signal (z-score),[10],-0.611
same,glycan array binding signal (z-score),[11],-0.387
same,glycan array binding signal (z-score),[12],-0.181
same,glycan array binding signal (z-score),[13],-0.519
same,glycan array binding signal (z-score),[14],0.12
same,glycan array binding signal (z-score),[15],-0.16
same,glycan array binding signal (z-score),[16],-0.517
same,glycan array binding signal (z-score),[17],-0.049
same,glycan array binding signal (z-score),[18],-0.549
same,glycan array binding signal (z-score),[19],2.08
same,glycan array binding signal (z-score),[20],-0.837
same,glycan array binding signal (z-score),[21],-0.431
same,glycan array binding signal (z-score),[22],0.652
same,glycan array binding signal (z-score),[23],-0.326
same,glycan array binding signal (z-score),[24],-0.251
same,glycan array binding signal (z-score),[25],-0.818
same,glycan array binding signal (z-score),[26],-0.872
same,glycan array binding signal (z-score),[27],0.396
same,glycan array binding signal (z-score),[28],-0.91
same,glycan array binding signal (z-score),[29],-1
same,glycan array binding signal (z-score),[30],-0.71
same,glycan array binding signal (z-score),[31],-0.634
same,glycan array binding signal (z-score),[32],-0.299
same,glycan array binding signal (z-score),[33],-0.345
same,glycan array binding signal (z-score),[34],-0.673
same,glycan array binding signal (z-score),[35],-0.249
same,glycan array binding signal (z-score),[36],-0.294
same,glycan array binding signal (z-score),[37],-0.611

# Copied from the listing for reference:
binder,measurement,setting,value
B1,glycan array binding signal (z-score),[27],0.396
same,glycan array binding signal (z-score),[28],-0.91
